Assay results from US20080242599A1, “Compositions and Methods for Increasing Osteoblast Cell Differentiation and Bone Generation” (priority 2005, published 2008).
At least one structure is not confirmed: it was looked up by name or label, or the drawing left a doubt.

System: MC3T3 pre-osteoblasts
Experiment: Alkaline phosphatase activity staining and von Kossa mineralization of osteoblast cultures
Assay type: cell-based, mouse
Details: treated every 2 days from day 4

## C=CC[C@@H]1/C=C(\C)C[C@H](C)C[C@H](OC)[C@H]2O[C@@](O)(C(=O)C(=O)N3CCCC[C@H]3C(=O)O[C@H](/C(C)=C/[C@@H]3CC[C@@H](O)[C@H](OC)C3)[C@H](C)[C@@H](O)CC1=O)[C@H](C)C[C@@H]2OC [FK506]
MC3T3, 14 days culture
  alkaline phosphatase activity (staining): increased dose-dependently
MC3T3, 21 days culture
  mineralization (von Kossa): increased dose-dependently
